According to paper PMC9237108, “The Vibrio vulnificus stressosome is an oxygen-sensor involved in regulating iron metabolism” (Communications Biology, 2022):
Results are given in words; binding and its absence hold for the method and conditions named. For some of these results: Binding can be weak; no strength is given. For some of these results: Where a sequence is shown, tags or fusion partners need not be part of it.

Sequences of proteins named here, by UniProt entry; tags and fusion partners are left off. A change or cut given only in a name is not applied to a line headed by its entry.
UniProt A0A3Q0KX63: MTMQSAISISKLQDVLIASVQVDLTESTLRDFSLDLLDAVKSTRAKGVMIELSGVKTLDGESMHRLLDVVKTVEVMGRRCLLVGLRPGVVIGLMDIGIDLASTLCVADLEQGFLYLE

Key:
Experiment in all cases: two-hybrid; bacterial two-hybrid (BACTH), T18 and T25 CyaA fusions co-transformed into E. coli BTH101, X-Gal plates with 0.5 mM IPTG at room temperature for up to three days, aerobic; blue in all three replicates counted as positive
[1] = biological target: VvRsbX (VV2_0076), bacterial two-hybrid fusion (Vibrio vulnificus CMCP6)
[2] = biological target: VvRsbR (VV2_0073), bacterial two-hybrid fusion (Vibrio vulnificus CMCP6)
[3] = biological target: VvRsbS (VV2_0074), bacterial two-hybrid fusion (Vibrio vulnificus CMCP6)
[4] = biological target: VvRsbT (VV2_0075), bacterial two-hybrid fusion (Vibrio vulnificus CMCP6)

Row | Molecule | binding [1] | binding [2] | binding [3] | binding [4]
1 | VvRsbS (VV2_0074), bacterial two-hybrid fusion (from UniProt A0A3Q0KX63) | binds |  |  | 
2 | VV1_0681 (small STAS-domain protein), bacterial two-hybrid fusion (protein, UniProt A0A3Q0L2H2 1-105) MSHPQWQQSTDEKVSLSGNLDREQVPSLWRFAQTWKPRNSQVEFSLKTVQRVDSAGMVMLIHLLEHAKKQNCHIMLSFVPAQLRTLFQLSNVEAVVAKHIQSYQG |  | no binding | no binding | no binding
3 | VV1_2658 (small STAS-domain protein), bacterial two-hybrid fusion (protein, UniProt A0A3Q0L6B6 1-106) MELSTLDLNQQTLTLSIVGNFDAHGSRQAQIHIDELINNDRHTDIEVDMSGVEFLDSSGIGAIVYLYKRLVERERTMRIENVRGQPLEIISLLRIDHAIPVNSKQF |  | no binding | no binding | no binding
4 | VV2_1159 (small STAS-domain protein), bacterial two-hybrid fusion (protein, UniProt A0A3Q0KZS6 1-99) MSVMKEVDKTSNTVTLAIEGAFGFNLVQEFRNAYTEHLNSQFIIDLRKVDYIDSAGLGMLLNMQKHLNSADGRIKIINTLPQVRKILLISRFDKKFHIE |  | no binding | no binding | no binding
